Measured values taken from patent US20170333591A9, “ABSORBENT ARTICLE COMPRISING MALODOR REDUCTION COMPOSITIONS” (The Procter & Gamble Company, priority 2014, published 2017).

Assay: Log of liquid dish neat product liquid-air partition coefficient
Type: physicochemical
Settings: code letters K/L of the Comment Code

O=C(c1ccccc1)c1ccccc1 [Material 655]
Log of liquid dish neat product liquid-air partition coefficient (Comment Code): K (Log of liquid dish neat product liquid-air partition coefficient greater than or equal to 7)
